Our source for the binding values is publication PMC11387770.

This assay addresses AKT (human (endogenous in 293T)). The experiment in a line: co-IP; 293T cells with or without overexpressed CRLF1; precipitation with antibodies against AKT or SIN1 and protein A Sepharose beads; IP buffer 20 mM Tris pH 7.5, 150 mM NaCl, 1% Triton X-100, 1 mM EDTA; also with CRLF1 knock-down (Fig. 7C).

No constants are given. Whether binding was seen depends on the method and setting. In cells and extracts the contact can be indirect. Binding calls can cover weak binding; strength is not graded here. Where a sequence is shown, tags or fusion partners need not be part of it.

B1: cytokine receptor-like factor 1 (CRLF1), full length, C-terminal His-tagged (protein, UniProt O75462 38-422)
chain: AHTAVISPQDPTLLIGSSLLATCSVHGDPPGATAEGLYWTLNGRRLPPELSRVLNASTLALALANLNGSRQRSGDNLVCHARDGSILAGSCLYVGLPPEKPVNISCWSKNMKDLTCRWTPGAHGETFLHTNYSLKYKLRWYGQDNTCEEYHTVGPHSCHIPKDLALFTPYEIWVEATNRLGSARSDVLTLDILDVVTTDPPPDVHVSRVGGLEDQLSVRWVSPPALKDFLFQAKYQIRYRVEDSVDWKVVDDVSNQTSCRLAGLKPGTVYFVQVRCNPFGIYGSKKAGIWSEWSHPTAASTPRSERPGPGGGACEPRGGEPSSGPVRRELKQFLGWLKKHAYCSNLSFRLYDQWRAWMQKSHKTRNQDEGILPSGRRGTARGPAR
Turning to B1, the binding result is “binds”.
